Test results: patent publication US7087598B2, “Diamide invertebrate pest control agents containing a non-aromatic heterocyclic ring” (E. I. du Pont de Nemours and Company, priority 2001, dated 2006)
Some of these results come from one statement about several compounds together.

What was measured:
Format in all cases: in vivo
[1] = test system: diamondback moth (Plutella xylostella); assay: Test A: control of diamondback moth on radish plant, foliar spray; conditions: neonate larvae, assessed after 6 days
[2] = test system: fall armyworm (Spodoptera frugiperda); assay: Test B: control of fall armyworm on corn (maize) plant, foliar spray; conditions: 1-day-old larvae
[3] = test system: tobacco budworm (Heliothis virescens); assay: Test C: control of tobacco budworm on cotton plant, foliar spray; conditions: 2-day-old larvae
[4] = test system: beet armyworm (Spodoptera exigua); assay: Test D: control of beet armyworm on corn plant, foliar spray; conditions: tested at 50 ppm, 1-day-old larvae

SMILES	feeding damage (excellent levels of plant protection, ratings of 0–1) ([1]; tested at 50 ppm) [%]	feeding damage (excellent levels of plant protection) ([2]; tested at 50 ppm) [%]	feeding damage (very good to excellent levels of plant protection) ([3]; tested at 50 ppm) [%]	feeding damage (very good to excellent levels of plant protection) [4] [%]	feeding damage (excellent levels of plant protection, ratings of 0–1) ([1]; sprayed at 250 ppm (or lower)) [%]	feeding damage (excellent levels of plant protection) ([2]; tested at 10 ppm) [%]	feeding damage (very good to excellent levels of plant protection) ([3]; tested at 10 ppm) [%]	feeding damage (excellent levels of plant protection, ratings of 0–1) ([1]; tested at 10 ppm) [%]
Cc1cccc(C(=O)NC(C)C)c1NC(=O)C1CC(C(F)(F)F)=NN1c1ccccc1Cl (centres unmarked) [Compound 1]	≤ 10	≤ 10	≤ 20	≤ 20	–	–	–	–
Cc1ccccc1N1N=C(C(F)(F)F)CC1C(=O)Nc1c(C)cccc1C(=O)NC(C)(C)C (centres unmarked) [Compound 6, N-[2-[[(1,1,-Dimethylethyl)amino]carbonyl]-6-methylphenyl]-4,5-dihydro-1-(2-methylphenyl)-3-(trifluoromethyl)-1H-pyrazole-5-carboxamide]	≤ 10	–	≤ 20	≤ 20	–	–	–	–
COC(=O)C1=NN(c2ccccc2C)C(C(=O)Nc2c(C)cccc2C(=O)NC(C)C)C1 (centres unmarked) [Compound 3, Methyl 4,5-dihydro-5-[[[2-methyl-6-[[(1-methylethyl)amino]carbonyl]phenyl]amino]carbonyl]-1-(2-methylphenyl)-1H-pyrazole-3-carboxylate]	–	–	–	–	≤ 10	–	–	–
Cc1ccccc1N1N=C(C(F)(F)F)CC1C(=O)Nc1c(C)cccc1C(=O)NC(C)C (centres unmarked) [Compound 4, 4,5-Dihydro-N-[2-methyl-6-[[(1-methylethyl)amino]carbonyl]phenyl]-1-(2-methylphenyl)-3-(trifluormethyl)-1H-pyrazole-5-carboxamide]	≤ 10	–	–	≤ 20	–	≤ 10	≤ 20	–
Cc1cccc(C(=O)NC(C)C)c1NC(=O)C1CC(C(F)(F)F)=NN1c1c(F)cccc1F (centres unmarked) [Compound 8]	–	–	–	–	–	–	–	≤ 10
Cc1cccc(C(=O)NC(C)C)c1NC(=O)C1CC(C(F)(F)F)=NN1c1ccccc1F (centres unmarked) [Compound 5, 1-(2-Fluorophenyl)-4,5-dihydro-N-[2-methyl-6-[[(1-methylethyl)amino]carbonyl]phenyl]-3-(trifluoromethyl)-1H-pyrazole-5-carboxamide]	≤ 10	≤ 10	≤ 20	≤ 20	–	–	–	–
